Reference: PubChem BioAssay AID1487 (National Center for Advancing Translational Sciences (NCATS), 2009)
Some of the results follow. Shown are side measurements of this screen, not its main read-out; they come without a call. The list favours compounds with an active or inconclusive main result. Potencies come from curve fits of mixed quality, noted in brackets.

Experiment: qHTS Assay for Modulators of Lamin A Splicing
Conditions: HeLa LMNA splicing GFP/RFP minigene ratio, 48 h
Method in brief: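 S3 HeLa stable clones carrying a lamin A-EGFP splicing minigene plus DsRed2 were seeded at 600 cells/well in Opti-MEM with 2% FBS, pin-dosed and incubated 48 h at 37°C. Acumen cytometry (488 nm) gave the GFP/RFP total-intensity ratio.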

[1] = measured here: RFP viability control channel
[2] = measured here: GFP splicing reporter channel

| Compound | AC50 [1] | AC50 [2] |
| --- | --- | --- |
| Cc1cc(C=O)c(C)n1-c1ccc(N2CCOCC2)cc1 | 20 µM [rising, single point] |  |
| CC(C)(C)CC(C)(C)c1ccc(O)c(CN2CCN(CCC#N)CC2)c1 | 31.6 µM [rising, single point] |  |
| Cc1ccc(-n2c(C)cc(/C=N/NC(=O)c3ccncc3)c2C)cc1 | 1 µM [rising, partial curve, poor fit] |  |
| CC(C(=O)O)c1cccc(C(=O)c2ccccc2)c1 (stereo not drawn) | 0.316 µM [falling, full curve, poor fit] |  |
| CCC(Oc1ccccc1)C(=O)Nc1ccc(S(=O)(=O)Nc2cnc3ccccc3n2)cc1 (stereo not drawn) | 12.6 µM [rising, single point] |  |
| Nc1ncc(Br)cc1N=Cc1ccccc1 |  | 0.00562 µM [rising, full curve, poor fit] |
| O=c1[nH]c2ccc(NCc3ccc(-c4cccc(Cl)c4)o3)cc2[nH]1 |  | 12.6 µM [rising, single point] |
| CCOc1ccccc1CNC(=O)C1CCN(S(=O)(=O)c2cccc3nonc23)CC1 |  | 8.91 µM [falling, partial curve, poor fit] |
| COc1ccc2cc(C(=O)N/N=C/c3sc4ccccc4c3O)ccc2c1 | 12.6 µM [rising, partial curve] | 11.2 µM [rising, partial curve] |
| O=C(Nc1ccc2c(c1)CCC2)c1cc2ccccc2o1 | 35.5 µM [rising, single point] |  |
| Cc1ccc2nc(NC(=O)Cc3cccs3)sc2c1 | 31.6 µM [rising, single point] | 22.4 µM [rising, single point] |
| Cc1cccc(N2CCN(C(=O)C(Cc3ccccc3)n3cccc3)CC2)c1C (stereo not drawn) | 12.6 µM [rising, partial curve, poor fit] |  |
| CN(C)c1nc(-c2cccc(C#N)c2)nc2ccccc12 | 22.4 µM [falling, single point] |  |
| COC(=O)c1cc(=O)n(Cc2ccc(OC)c(OC)c2)c(=Nc2ccc(F)cc2)s1 | 31.6 µM [falling, single point] | 25.1 µM [falling, single point] |
| Nc1[nH]c(=S)nc2nc(-c3ccccc3)c(-c3ccccc3)nc12 |  | 0.794 µM [rising, full curve, poor fit] |
| CC1(C)CC(=O)C2=C(C1)OC1=C(C(=O)CC(C)(C)C1)C2c1ccc(O)cc1O | 2.82 µM [rising, full curve, poor fit] |  |
| COc1ccc(O)c(C(=O)CC(=O)c2ccccc2)c1 | 12.6 µM [rising, single point] | 11.2 µM [rising, partial curve, poor fit] |
| O=C(CC(=O)N/N=C\c1cccc(Cl)c1Cl)NCc1ccccc1 | 12.6 µM [rising, partial curve] | 14.1 µM [rising, single point] |

| Compound | AC50 [1] | AC50 [2] |
| --- | --- | --- |
| O=c1c2c(-c3ccccc3)csc2nc2c3ccccc3c(NCCN3CCOCC3)nn12 | 3.16 µM [falling, partial curve] |  |
| O=C(Nc1ccccc1N1CCOCC1)c1ccccc1NS(=O)(=O)c1ccc(F)c(F)c1 | 31.6 µM [rising, single point] |  |
| Cc1ccc(C(C(=O)NC2CCCC2)N(Cc2ccc(F)cc2)C(=O)c2csnn2)o1 (stereo not drawn) | 15.8 µM [rising, single point] | 17.8 µM [rising, single point] |
| COc1ccc(OC)c(S(=O)(=O)N2CCC(C(=O)N3CCOCC3)CC2)c1 | 0.0316 µM [falling, full curve, poor fit] |  |
| Cc1ccc(C2CC2C(=O)NNC(=S)Nc2ccc(Cl)cc2)cc1 (stereo not drawn) | 14.1 µM [rising, single point] |  |
| CCOC(=O)c1cccc(NS(=O)(=O)c2cc(-c3cnc(C4CC4)o3)ccc2C)c1 | 7.08 µM [falling, partial curve] | 7.94 µM [falling, partial curve] |
| CC1CC(=O)C2=C(C1)Nc1ccccc1SC2c1ccc(F)cc1 (stereo not drawn) | 17.8 µM [rising, partial curve] | 8.91 µM [rising, partial curve] |
| CCC(=O)NNC(=O)CCC(=O)Nc1ccc(C)cc1C | 0.0631 µM [falling, full curve, poor fit] | 0.0631 µM [falling, full curve] |
| O=C(c1ccc(Cl)cc1)c1c[nH]c(C(=O)NNc2ccccc2)c1 | 0.141 µM [rising, full curve] |  |
| CCC(c1nnnn1Cc1cccs1)N1CCN(c2nc3ccccc3s2)CC1 (stereo not drawn) | 28.2 µM [rising, single point] | 14.1 µM [rising, single point] |
| O=C(Nc1ccc2c(c1)CCCN2C(=O)c1cccs1)c1ccccc1 |  | 35.5 µM [falling, single point] |
| COc1cc(-c2nnc(-c3ccncc3)o2)ccc1OCc1ccccc1 | 14.1 µM [rising, partial curve, poor fit] | 20 µM [rising, single point] |
| COc1cc(S(=O)(=O)N2CCN(c3ccccc3F)CC2)ccc1Cl | 31.6 µM [rising, single point] |  |
| COc1ccc(Cl)cc1NC(=O)COC(=O)C(CC(C)C)N1C(=O)C2CC=CCC2C1=O (stereo not drawn) | 0.0178 µM [rising, full curve, poor fit] |  |
| O=C(NNC(=S)Nc1ccc(OC(F)F)cc1)c1cc2c(s1)CCCC2 | 15.8 µM [rising, single point] |  |
| CCC1CCc2c([nH]c3ccccc3c2=O)O1 (stereo not drawn) | 35.5 µM [rising, single point] | 11.2 µM [rising, partial curve, poor fit] |
| Cc1c(C(=O)C(=O)N2c3ccc(F)cc3CCC2C)c2ccccc2n1C (stereo not drawn) | 5.62 µM [rising, single point] |  |
| Cc1nc(N2CCCC2)c2c(C(=O)Nc3cccc(Cl)c3)c(C)oc2n1 | 35.5 µM [falling, single point] |  |

Shown as labelled records: part of the list above
O=c1c2c(-c3ccccc3)csc2nc2c3ccccc3c(NCCN3CCOCC3)nn12
  AC50 [1]: 3.16 µM [falling, partial curve]
O=C(Nc1ccccc1N1CCOCC1)c1ccccc1NS(=O)(=O)c1ccc(F)c(F)c1
  AC50 [1]: 31.6 µM [rising, single point]
Cc1ccc(C(C(=O)NC2CCCC2)N(Cc2ccc(F)cc2)C(=O)c2csnn2)o1 (stereo not drawn)
  AC50 [1]: 15.8 µM [rising, single point]
  AC50 [2]: 17.8 µM [rising, single point]
